{"source": "PubChem BioAssay AID743121, NCATS | 2013", "purpose": "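Genes whose silencing strengthens cell killing by camptothecin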 (primary screen)", "cells": "MDA-MB-231 cells, a human breast cancer line", "reagents": "single siRNA against human genes, 20 nM siRNA (0.8 pmol per well)", "time to read-out": "120 h (drug added 48 h after transfection, read 72 h later)", "challenge": "camptothecin 20 nM (about EC30) for 72 h; vehicle 0.1% DMSO in parallel plates", "read-out": "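Cell viability by ATP luminescence (CellTiter-Glo) as % of non-targeting siRNA wells, and the log2 ratio of viability without drug over viability with camptothecin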", "direction": "log2 vehicle/camptothecin viability: higher = stronger sensitisation to camptothecin; viability with camptothecin: higher = more viable cells", "call rule": "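Active genes have an RSA gene-level p-value below 0.001, computed from the ratios of their separate siRNAs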", "note": "The deposit covers about 26,000 reagents; shown is a random part of them. In the full data, 167 (0.63%) got an active call. 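Calls are per gene from RSA p-values that are not deposited; an individual active-marked siRNA can sensitise only weakly.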 The numbers tell different reagents against one gene apart. Not all columns of the deposit are shown. No sequences are given here."}
{"gene": "SPTAN1 (GeneID 6709)", "reagent": 1, "log2 vehicle/camptothecin viability": 0.232, "viability with camptothecin (% of control)": 87.4, "Call": "inactive"}
{"gene": "SPTAN1 (GeneID 6709)", "reagent": 2, "log2 vehicle/camptothecin viability": 0.302, "viability with camptothecin (% of control)": 54.1, "Call": "inactive"}
{"gene": "SPTAN1 (GeneID 6709)", "reagent": 3, "log2 vehicle/camptothecin viability": -0.312, "viability with camptothecin (% of control)": 107, "Call": "inactive"}
{"gene": "SPTAN1 (GeneID 6709)", "reagent": 4, "log2 vehicle/camptothecin viability": 0.465, "viability with camptothecin (% of control)": 45.5, "Call": "inactive"}
{"gene": "EZH2 (GeneID 2146)", "reagent": 1, "log2 vehicle/camptothecin viability": -0.0661, "viability with camptothecin (% of control)": 102, "Call": "inactive"}
{"gene": "EZH2 (GeneID 2146)", "reagent": 2, "log2 vehicle/camptothecin viability": 0.129, "viability with camptothecin (% of control)": 97.8, "Call": "inactive"}
{"gene": "EZH2 (GeneID 2146)", "reagent": 3, "log2 vehicle/camptothecin viability": 0.0917, "viability with camptothecin (% of control)": 92.5, "Call": "inactive"}
{"gene": "EZH2 (GeneID 2146)", "reagent": 4, "log2 vehicle/camptothecin viability": 0.596, "viability with camptothecin (% of control)": 39.2, "Call": "inactive"}
{"gene": "PRKACB (GeneID 5567)", "reagent": 1, "log2 vehicle/camptothecin viability": -0.101, "viability with camptothecin (% of control)": 65.5, "Call": "inactive"}
{"gene": "PRKACB (GeneID 5567)", "reagent": 2, "log2 vehicle/camptothecin viability": 0.105, "viability with camptothecin (% of control)": 118, "Call": "inactive"}
{"gene": "PRKACB (GeneID 5567)", "reagent": 3, "log2 vehicle/camptothecin viability": -0.266, "viability with camptothecin (% of control)": 83.5, "Call": "inactive"}
{"gene": "PRKACB (GeneID 5567)", "reagent": 4, "log2 vehicle/camptothecin viability": -0.217, "viability with camptothecin (% of control)": 66.4, "Call": "inactive"}
{"gene": "GPR21 (GeneID 2844)", "reagent": 1, "log2 vehicle/camptothecin viability": 0.158, "viability with camptothecin (% of control)": 87.2, "Call": "inactive"}
{"gene": "GPR21 (GeneID 2844)", "reagent": 2, "log2 vehicle/camptothecin viability": -0.177, "viability with camptothecin (% of control)": 96.1, "Call": "inactive"}
{"gene": "GPR21 (GeneID 2844)", "reagent": 3, "log2 vehicle/camptothecin viability": -0.0292, "viability with camptothecin (% of control)": 81.2, "Call": "inactive"}
{"gene": "GPR21 (GeneID 2844)", "reagent": 4, "log2 vehicle/camptothecin viability": 0.121, "viability with camptothecin (% of control)": 60.6, "Call": "inactive"}

Continued (3 carried over from the part before).
{"gene": "GPR21 (GeneID 2844)", "reagent": 2, "log2 vehicle/camptothecin viability": -0.177, "viability with camptothecin (% of control)": 96.1, "Call": "inactive"}
{"gene": "GPR21 (GeneID 2844)", "reagent": 3, "log2 vehicle/camptothecin viability": -0.0292, "viability with camptothecin (% of control)": 81.2, "Call": "inactive"}
{"gene": "GPR21 (GeneID 2844)", "reagent": 4, "log2 vehicle/camptothecin viability": 0.121, "viability with camptothecin (% of control)": 60.6, "Call": "inactive"}
{"gene": "KCNA10 (GeneID 3744)", "reagent": 1, "log2 vehicle/camptothecin viability": -0.318, "viability with camptothecin (% of control)": 106, "Call": "inactive"}
{"gene": "KCNA10 (GeneID 3744)", "reagent": 2, "log2 vehicle/camptothecin viability": -0.407, "viability with camptothecin (% of control)": 78.1, "Call": "inactive"}
{"gene": "KCNA10 (GeneID 3744)", "reagent": 3, "log2 vehicle/camptothecin viability": -0.256, "viability with camptothecin (% of control)": 65.9, "Call": "inactive"}
{"gene": "CLIC6 (GeneID 54102)", "reagent": 1, "log2 vehicle/camptothecin viability": 0.0162, "viability with camptothecin (% of control)": 77.9, "Call": "inactive"}
{"gene": "CLIC6 (GeneID 54102)", "reagent": 2, "log2 vehicle/camptothecin viability": -0.296, "viability with camptothecin (% of control)": 24.2, "Call": "inactive"}
{"gene": "CLIC6 (GeneID 54102)", "reagent": 3, "log2 vehicle/camptothecin viability": -0.0707, "viability with camptothecin (% of control)": 93.1, "Call": "inactive"}
{"gene": "CLIC6 (GeneID 54102)", "reagent": 4, "log2 vehicle/camptothecin viability": 0.262, "viability with camptothecin (% of control)": 48.3, "Call": "inactive"}
{"gene": "APOL2 (GeneID 23780)", "reagent": 1, "log2 vehicle/camptothecin viability": -0.314, "viability with camptothecin (% of control)": 67.8, "Call": "inactive"}
{"gene": "APOL2 (GeneID 23780)", "reagent": 2, "log2 vehicle/camptothecin viability": -0.121, "viability with camptothecin (% of control)": 79.7, "Call": "inactive"}
{"gene": "APOL2 (GeneID 23780)", "reagent": 3, "log2 vehicle/camptothecin viability": 0.122, "viability with camptothecin (% of control)": 60.7, "Call": "inactive"}
{"gene": "APOL2 (GeneID 23780)", "reagent": 4, "log2 vehicle/camptothecin viability": 0.064, "viability with camptothecin (% of control)": 105, "Call": "inactive"}
{"gene": "SCN4A (GeneID 6329)", "reagent": 1, "log2 vehicle/camptothecin viability": -0.409, "viability with camptothecin (% of control)": 45.2, "Call": "inactive"}
{"gene": "SCN4A (GeneID 6329)", "reagent": 2, "log2 vehicle/camptothecin viability": -0.136, "viability with camptothecin (% of control)": 87.6, "Call": "inactive"}
{"gene": "SCN4A (GeneID 6329)", "reagent": 3, "log2 vehicle/camptothecin viability": -0.332, "viability with camptothecin (% of control)": 69.3, "Call": "inactive"}
{"gene": "SCN4A (GeneID 6329)", "reagent": 4, "log2 vehicle/camptothecin viability": -0.0792, "viability with camptothecin (% of control)": 75.6, "Call": "inactive"}
{"gene": "TRIM4 (GeneID 89122)", "reagent": 1, "log2 vehicle/camptothecin viability": -0.125, "viability with camptothecin (% of control)": 88.6, "Call": "inactive"}
{"gene": "TRIM4 (GeneID 89122)", "reagent": 2, "log2 vehicle/camptothecin viability": -0.246, "viability with camptothecin (% of control)": 94.2, "Call": "inactive"}
{"gene": "TRIM4 (GeneID 89122)", "reagent": 3, "log2 vehicle/camptothecin viability": 0.601, "viability with camptothecin (% of control)": 62.6, "Call": "inactive"}
{"gene": "TRIM4 (GeneID 89122)", "reagent": 4, "log2 vehicle/camptothecin viability": -0.193, "viability with camptothecin (% of control)": 105, "Call": "inactive"}
